Experimental data from the supplement of paper PMC10849652.
Some of the results follow.

By UniProt entry, the sequences of proteins in these tests, tags left out. Where a name states a change or a piece, a line headed by the entry shows the natural chain unless it says otherwise.
UniProt Q96GW9: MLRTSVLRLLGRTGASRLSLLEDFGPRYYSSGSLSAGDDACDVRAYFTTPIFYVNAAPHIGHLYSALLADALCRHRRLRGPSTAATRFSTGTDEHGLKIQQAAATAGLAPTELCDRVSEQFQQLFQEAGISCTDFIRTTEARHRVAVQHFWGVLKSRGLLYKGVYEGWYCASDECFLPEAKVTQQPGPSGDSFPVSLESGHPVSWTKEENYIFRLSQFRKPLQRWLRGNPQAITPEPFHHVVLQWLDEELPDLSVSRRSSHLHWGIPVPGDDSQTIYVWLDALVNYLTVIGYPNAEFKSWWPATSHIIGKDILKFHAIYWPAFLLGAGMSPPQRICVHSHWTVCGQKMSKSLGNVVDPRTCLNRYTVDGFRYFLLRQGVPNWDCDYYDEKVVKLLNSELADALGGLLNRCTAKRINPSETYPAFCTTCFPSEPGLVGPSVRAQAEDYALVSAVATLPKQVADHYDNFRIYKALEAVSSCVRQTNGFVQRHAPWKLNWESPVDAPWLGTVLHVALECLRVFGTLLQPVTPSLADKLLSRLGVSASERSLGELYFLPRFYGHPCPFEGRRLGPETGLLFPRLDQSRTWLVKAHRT
UniProt P48163: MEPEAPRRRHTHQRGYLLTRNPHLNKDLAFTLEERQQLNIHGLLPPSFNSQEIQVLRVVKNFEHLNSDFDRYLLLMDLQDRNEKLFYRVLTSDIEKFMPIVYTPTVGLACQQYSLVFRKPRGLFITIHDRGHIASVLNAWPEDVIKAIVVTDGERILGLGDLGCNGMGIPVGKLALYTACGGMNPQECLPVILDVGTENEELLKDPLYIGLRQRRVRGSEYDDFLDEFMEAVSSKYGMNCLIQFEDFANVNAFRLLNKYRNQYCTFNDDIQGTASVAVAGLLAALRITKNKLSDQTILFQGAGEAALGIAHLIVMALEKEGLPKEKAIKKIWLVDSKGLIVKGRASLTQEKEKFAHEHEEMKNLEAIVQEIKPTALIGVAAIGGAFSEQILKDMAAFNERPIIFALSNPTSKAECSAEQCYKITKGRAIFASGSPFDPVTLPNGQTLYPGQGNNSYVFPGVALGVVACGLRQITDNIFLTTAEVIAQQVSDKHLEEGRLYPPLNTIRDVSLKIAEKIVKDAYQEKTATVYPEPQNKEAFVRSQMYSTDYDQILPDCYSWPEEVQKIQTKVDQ
UniProt Q9HCC0: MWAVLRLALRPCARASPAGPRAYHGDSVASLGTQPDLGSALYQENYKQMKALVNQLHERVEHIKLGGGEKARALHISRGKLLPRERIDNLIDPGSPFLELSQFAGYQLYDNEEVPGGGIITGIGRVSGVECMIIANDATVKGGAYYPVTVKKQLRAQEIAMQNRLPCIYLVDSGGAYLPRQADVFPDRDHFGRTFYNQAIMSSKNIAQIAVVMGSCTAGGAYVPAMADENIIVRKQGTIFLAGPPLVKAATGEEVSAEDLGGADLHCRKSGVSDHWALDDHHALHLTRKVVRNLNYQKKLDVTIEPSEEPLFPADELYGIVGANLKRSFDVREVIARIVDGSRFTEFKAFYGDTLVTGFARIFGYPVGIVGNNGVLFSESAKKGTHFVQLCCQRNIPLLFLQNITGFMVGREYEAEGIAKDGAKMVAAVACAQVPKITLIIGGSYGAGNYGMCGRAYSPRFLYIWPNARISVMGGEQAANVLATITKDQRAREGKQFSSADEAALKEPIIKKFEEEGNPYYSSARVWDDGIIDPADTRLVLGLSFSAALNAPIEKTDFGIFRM
UniProt Q8IVS2: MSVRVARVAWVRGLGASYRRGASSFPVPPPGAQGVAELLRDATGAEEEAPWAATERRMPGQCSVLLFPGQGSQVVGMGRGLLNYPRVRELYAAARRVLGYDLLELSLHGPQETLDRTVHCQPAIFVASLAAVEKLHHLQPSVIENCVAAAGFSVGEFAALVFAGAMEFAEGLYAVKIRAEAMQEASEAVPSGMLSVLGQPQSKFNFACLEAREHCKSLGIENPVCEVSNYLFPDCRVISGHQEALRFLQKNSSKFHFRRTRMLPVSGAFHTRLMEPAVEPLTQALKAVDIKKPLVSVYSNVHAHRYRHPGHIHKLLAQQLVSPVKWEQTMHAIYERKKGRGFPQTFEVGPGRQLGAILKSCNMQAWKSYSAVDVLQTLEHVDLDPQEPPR
UniProt Q9UBP6: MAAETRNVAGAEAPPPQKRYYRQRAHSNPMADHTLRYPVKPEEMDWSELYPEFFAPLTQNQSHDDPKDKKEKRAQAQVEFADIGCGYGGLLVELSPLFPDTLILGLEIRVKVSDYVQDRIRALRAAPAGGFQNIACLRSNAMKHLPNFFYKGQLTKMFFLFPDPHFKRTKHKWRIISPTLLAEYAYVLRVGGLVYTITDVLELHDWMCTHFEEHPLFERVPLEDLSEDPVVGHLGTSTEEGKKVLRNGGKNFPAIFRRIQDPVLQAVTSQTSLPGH
UniProt Q9BUE0: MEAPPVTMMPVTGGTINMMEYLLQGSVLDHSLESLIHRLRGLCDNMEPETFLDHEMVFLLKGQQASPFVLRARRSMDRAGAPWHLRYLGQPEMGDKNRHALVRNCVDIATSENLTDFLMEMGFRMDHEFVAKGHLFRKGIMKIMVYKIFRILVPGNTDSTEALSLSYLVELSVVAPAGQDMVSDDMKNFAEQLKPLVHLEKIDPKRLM
UniProt P51608, whole entry, looked up: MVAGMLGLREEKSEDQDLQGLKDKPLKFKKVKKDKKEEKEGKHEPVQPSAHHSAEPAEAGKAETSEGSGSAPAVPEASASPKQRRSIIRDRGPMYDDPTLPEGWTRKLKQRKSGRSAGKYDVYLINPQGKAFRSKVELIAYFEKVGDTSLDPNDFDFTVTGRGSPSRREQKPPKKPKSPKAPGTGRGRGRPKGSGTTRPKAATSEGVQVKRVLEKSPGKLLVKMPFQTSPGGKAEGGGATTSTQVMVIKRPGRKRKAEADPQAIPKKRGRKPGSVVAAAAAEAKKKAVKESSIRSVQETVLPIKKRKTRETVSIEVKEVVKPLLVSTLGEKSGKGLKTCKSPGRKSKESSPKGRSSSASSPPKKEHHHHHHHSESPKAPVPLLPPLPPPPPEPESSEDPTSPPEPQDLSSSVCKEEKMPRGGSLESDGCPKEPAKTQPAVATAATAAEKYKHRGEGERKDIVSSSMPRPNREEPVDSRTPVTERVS
UniProt Q8NI22: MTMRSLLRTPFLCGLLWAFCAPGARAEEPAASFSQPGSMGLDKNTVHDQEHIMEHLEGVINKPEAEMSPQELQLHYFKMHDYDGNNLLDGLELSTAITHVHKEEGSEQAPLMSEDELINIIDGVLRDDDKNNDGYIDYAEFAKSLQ
UniProt Q6P9B6: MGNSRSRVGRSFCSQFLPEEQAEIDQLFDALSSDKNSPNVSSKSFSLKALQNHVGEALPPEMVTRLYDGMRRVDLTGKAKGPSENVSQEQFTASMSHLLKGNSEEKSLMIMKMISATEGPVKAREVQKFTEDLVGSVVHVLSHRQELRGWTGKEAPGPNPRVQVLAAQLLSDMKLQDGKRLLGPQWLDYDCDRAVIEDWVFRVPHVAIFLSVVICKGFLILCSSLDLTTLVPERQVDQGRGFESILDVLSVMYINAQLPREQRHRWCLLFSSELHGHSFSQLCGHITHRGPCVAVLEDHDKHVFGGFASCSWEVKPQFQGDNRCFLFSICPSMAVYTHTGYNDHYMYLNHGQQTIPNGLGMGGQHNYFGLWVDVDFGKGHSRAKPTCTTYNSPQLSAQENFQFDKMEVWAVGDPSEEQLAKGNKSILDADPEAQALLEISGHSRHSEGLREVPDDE
UniProt Q9Y2X0: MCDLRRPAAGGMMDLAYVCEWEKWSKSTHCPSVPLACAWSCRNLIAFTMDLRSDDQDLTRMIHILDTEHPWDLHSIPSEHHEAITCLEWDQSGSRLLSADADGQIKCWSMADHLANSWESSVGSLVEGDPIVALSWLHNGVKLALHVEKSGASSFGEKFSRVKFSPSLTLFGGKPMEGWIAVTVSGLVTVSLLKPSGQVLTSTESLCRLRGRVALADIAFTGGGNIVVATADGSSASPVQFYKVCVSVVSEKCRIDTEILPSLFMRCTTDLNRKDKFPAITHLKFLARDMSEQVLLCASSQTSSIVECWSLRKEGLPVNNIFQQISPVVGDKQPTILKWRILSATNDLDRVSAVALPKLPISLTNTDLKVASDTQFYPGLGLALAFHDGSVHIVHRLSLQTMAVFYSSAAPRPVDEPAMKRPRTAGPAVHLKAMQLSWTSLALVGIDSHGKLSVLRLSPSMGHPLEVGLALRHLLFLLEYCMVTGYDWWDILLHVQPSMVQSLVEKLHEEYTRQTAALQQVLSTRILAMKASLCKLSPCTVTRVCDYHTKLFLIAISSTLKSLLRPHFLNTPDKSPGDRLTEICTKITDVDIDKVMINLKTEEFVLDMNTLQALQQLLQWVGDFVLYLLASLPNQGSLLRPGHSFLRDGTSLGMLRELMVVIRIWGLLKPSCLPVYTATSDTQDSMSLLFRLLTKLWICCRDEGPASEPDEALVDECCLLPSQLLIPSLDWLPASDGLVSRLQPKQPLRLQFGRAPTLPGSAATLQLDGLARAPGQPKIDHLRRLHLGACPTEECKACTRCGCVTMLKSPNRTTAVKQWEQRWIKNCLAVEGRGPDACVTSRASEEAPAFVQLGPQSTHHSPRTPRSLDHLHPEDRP
UniProt Q9NZL9, whole entry, looked up: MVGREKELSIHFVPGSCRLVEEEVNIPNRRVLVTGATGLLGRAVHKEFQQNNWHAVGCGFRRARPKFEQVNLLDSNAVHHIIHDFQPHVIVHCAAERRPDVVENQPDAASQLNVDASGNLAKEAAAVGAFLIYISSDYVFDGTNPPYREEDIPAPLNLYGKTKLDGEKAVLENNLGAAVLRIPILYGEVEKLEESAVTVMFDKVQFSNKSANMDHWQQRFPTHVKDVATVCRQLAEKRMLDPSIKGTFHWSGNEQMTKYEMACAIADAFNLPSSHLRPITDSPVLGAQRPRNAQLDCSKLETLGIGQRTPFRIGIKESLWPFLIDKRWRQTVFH
UniProt Q9GZY8: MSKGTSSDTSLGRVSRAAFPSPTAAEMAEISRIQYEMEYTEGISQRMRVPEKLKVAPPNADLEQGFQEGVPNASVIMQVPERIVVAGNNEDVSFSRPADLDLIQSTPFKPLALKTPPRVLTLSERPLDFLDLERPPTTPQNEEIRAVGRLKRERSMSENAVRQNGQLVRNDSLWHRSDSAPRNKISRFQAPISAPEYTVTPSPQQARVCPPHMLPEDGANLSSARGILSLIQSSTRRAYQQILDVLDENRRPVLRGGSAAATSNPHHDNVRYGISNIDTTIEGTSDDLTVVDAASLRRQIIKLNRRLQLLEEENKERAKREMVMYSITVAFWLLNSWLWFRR
UniProt Q9HCE5: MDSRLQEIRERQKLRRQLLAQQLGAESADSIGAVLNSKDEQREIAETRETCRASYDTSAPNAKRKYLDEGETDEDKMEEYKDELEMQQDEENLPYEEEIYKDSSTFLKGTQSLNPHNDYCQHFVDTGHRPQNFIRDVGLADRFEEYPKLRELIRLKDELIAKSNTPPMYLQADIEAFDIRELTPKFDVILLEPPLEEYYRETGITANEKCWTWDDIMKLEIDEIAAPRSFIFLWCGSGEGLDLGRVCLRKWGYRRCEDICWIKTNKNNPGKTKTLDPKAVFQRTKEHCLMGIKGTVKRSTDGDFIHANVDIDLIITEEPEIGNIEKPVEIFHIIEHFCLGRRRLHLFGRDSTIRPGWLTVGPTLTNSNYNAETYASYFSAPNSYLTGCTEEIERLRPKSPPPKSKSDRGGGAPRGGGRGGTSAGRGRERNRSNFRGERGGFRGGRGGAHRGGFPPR
UniProt Q99735: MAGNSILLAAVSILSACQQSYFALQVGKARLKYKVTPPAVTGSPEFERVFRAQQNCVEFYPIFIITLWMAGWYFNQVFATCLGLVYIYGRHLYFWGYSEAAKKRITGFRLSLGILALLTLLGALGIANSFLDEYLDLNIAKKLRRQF
UniProt Q9H204: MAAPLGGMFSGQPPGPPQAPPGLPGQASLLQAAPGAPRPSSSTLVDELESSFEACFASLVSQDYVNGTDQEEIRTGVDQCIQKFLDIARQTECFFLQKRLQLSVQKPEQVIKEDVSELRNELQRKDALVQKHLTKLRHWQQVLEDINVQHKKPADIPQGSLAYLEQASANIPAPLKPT
UniProt O95983: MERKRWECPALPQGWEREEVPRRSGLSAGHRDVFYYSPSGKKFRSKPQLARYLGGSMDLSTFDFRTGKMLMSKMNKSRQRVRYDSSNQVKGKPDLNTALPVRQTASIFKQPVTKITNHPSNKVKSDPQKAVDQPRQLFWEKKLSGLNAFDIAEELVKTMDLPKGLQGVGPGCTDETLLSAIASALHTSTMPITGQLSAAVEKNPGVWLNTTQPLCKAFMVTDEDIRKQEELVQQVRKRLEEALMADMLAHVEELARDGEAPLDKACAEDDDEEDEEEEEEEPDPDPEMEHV

Experiments:
Assay in all cases: log2 fold change, soluble protein after heating vs DMSO (PISA); higher = thermal stabilisation; K562 cells, 10 uM, 30 min; active = over 0.2 and 3.5 SD of the protein, either way, in both replicates (recomputed)
bafetinib = compound: Cc1ccc(NC(=O)c2ccc(CN3CC[C@H](N(C)C)C3)c(C(F)(F)F)c2)cc1Nc1nccc(-c2cncnc2)n1 [bafetinib]
How it was run: (§1)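 Quantification of soluble protein used TMTpro 16plex LC-MS/MS, with channel sums equalised. Samples were the supernatant after 21,000xg for 90 min of pooled aliquots from K562 cells (2×10^6 cells/mL) treated with 10 μM compound for 30 min, heated for 3 min over 48°C-58°C, and extracted in PBS with 0.5% NP-40 at 4°C. Values, from duplicates, describe thermal stability against control samples on a log2 fold-change scale.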

[1] = compound: Cc1cccc(CC(=O)N2CCc3c2ccc(-c2cn(C)c4ncnc(N)c24)c3F)n1
How it was run: as §1

nilotinib = compound: Cc1cn(-c2cc(NC(=O)c3ccc(C)c(Nc4nccc(-c5cccnc5)n4)c3)cc(C(F)(F)F)c2)cn1 [nilotinib]
How it was run: as §1

[2] = compound: Cc1nc(Nc2n[nH]c3c2CN(C(=O)N[C@H](CN(C)C)c2ccccc2)C3(C)C)c2sccc2n1
How it was run: as §1

dasatinib = compound: Cc1nc(Nc2ncc(C(=O)Nc3c(C)cccc3Cl)s2)cc(N2CCN(CCO)CC2)n1 [dasatinib]
How it was run: as §1

[3] = compound: Cc1ncc(-c2ccnc(Nc3ccc(S(C)(=O)=O)cc3)n2)n1C(C)C
How it was run: as §1

[4] = compound: Cn1cc(-c2ccc3c(c2)CCN3C(=O)Cc2cccc(C(F)(F)F)c2)c2c(N)ncnc21
How it was run: as §1

[5] = compound: Cn1cc(-c2ccc3nnc(C(F)(F)c4ccc5ncccc5c4)n3n2)cn1
How it was run: as §1

tipifarnib = compound: Cn1cncc1[C@@](N)(c1ccc(Cl)cc1)c1ccc2c(c1)c(-c1cccc(Cl)c1)cc(=O)n2C [tipifarnib]
How it was run: as §1

mubritinib = compound: FC(F)(F)c1ccc(/C=C/c2nc(COc3ccc(CCCCn4ccnn4)cc3)co2)cc1 [mubritinib]
How it was run: as §1

Target	log2 fold change (bafetinib)	log2 fold change [1]	log2 fold change (nilotinib)	log2 fold change [2]	log2 fold change (dasatinib)	log2 fold change [3]	log2 fold change [4]	log2 fold change [5]	log2 fold change (tipifarnib)	log2 fold change (mubritinib)
MARS2 (UniProt Q96GW9)	inactive: -0.074	inactive: -0.096	inactive: -0.006	inactive: -0.001	inactive: 0.021	inactive: -0.009	inactive: 0.047	inactive: 0.055	inactive: -0.017	inactive: 0.004
MDH2 (UniProt P40926)	inactive: -0.005	inactive: -0.053	inactive: -0.018	inactive: 0.017	inactive: 0.03	inactive: -0.025	inactive: 0.01	inactive: 0.02	inactive: 0.015	inactive: -0.02
ME1 (UniProt P48163)	inactive: -0.031	inactive: -0.041	inactive: -0.007	inactive: 0.011	inactive: -0.005	inactive: -0.007	inactive: 0.041	inactive: -0.019	inactive: 0.007	inactive: 0.035
MCCC2 (UniProt Q9HCC0)	inactive: -0.047	inactive: -0.062	inactive: 0.035	inactive: -0.012	inactive: 0.058	inactive: -0.047	inactive: 0.04	inactive: 0.028	inactive: -0.005	inactive: -0.015
MBTPS1 (UniProt Q14703)	inactive: 0.11	inactive: -0.008	inactive: 0.053	inactive: 0.02	inactive: 0.024	inactive: -0.004	inactive: -0.03	inactive: 0.019	inactive: 0.104	inactive: 0.095
MED1 (UniProt Q15648)	inactive: 0.016	inactive: -0.018	inactive: 0.057	inactive: 0	inactive: 0.037	active: -0.217	inactive: -0.064	inactive: -0.089	inactive: 0.069	inactive: 0.004
MCAT (UniProt Q8IVS2)	inactive: 0.032	inactive: 0.012	inactive: -0.025	inactive: 0.01	inactive: 0.029	inactive: -0.009	inactive: -0.044	inactive: -0.024	inactive: -0.014	inactive: 0.014
MCAM (UniProt P43121)	inactive: -0.001	inactive: -0.036	inactive: 0.047	inactive: 0.005	inactive: 0.044	inactive: -0.02	inactive: 0.028	inactive: 0.014	inactive: 0.026	inactive: 0.032
MEAF6 isoform 3 (UniProt Q9HAF1)	inactive: 0.009	inactive: -0.035	inactive: 0.077	inactive: 0.064	inactive: 0.06	inactive: -0.025	inactive: 0.009	inactive: -0.013	inactive: 0.054	inactive: 0.032
METTL1 (UniProt Q9UBP6)	inactive: -0.034	inactive: 0.055	inactive: 0.027	inactive: 0.005	inactive: 0.048	inactive: 0.015	inactive: 0.053	inactive: -0.019	inactive: 0.041	inactive: 0.057
MED18 (UniProt Q9BUE0)	inactive: -0.085	inactive: 0.088	inactive: -0.006	inactive: -0.092	inactive: 0.007	inactive: -0.048	inactive: 0.032	inactive: -0.015	inactive: -0.006	inactive: 0.041
METAP2 (UniProt P50579)	inactive: -0.087	inactive: 0.004	inactive: -0.006	inactive: 0	inactive: 0.073	inactive: -0.019	inactive: 0.025	inactive: -0.086	inactive: 0.048	inactive: 0.059
MECP2 isoform 2 (UniProt P51608)	inactive: 0.122	inactive: -0.012	inactive: -0.069	inactive: -0.043	inactive: 0.242	inactive: -0.058	inactive: -0.234	inactive: -0.063	inactive: 0.073	inactive: -0.041
MCFD2 (UniProt Q8NI22)	inactive: -0.119	inactive: -0.14	inactive: 0.09	inactive: 0	inactive: -0.005	inactive: -0.042	inactive: 0.032	inactive: 0.09	inactive: 0.414	inactive: -0.003
MEAK7 (UniProt Q6P9B6)	inactive: -0.094	inactive: 0.042	inactive: 0.024	inactive: -0.036	inactive: -0.078	inactive: 0.025	inactive: 0.02	inactive: -0.03	inactive: -0.022	inactive: 0.052
MCU (UniProt Q8NE86)	inactive: -0.173	inactive: 0.032	inactive: -0.017	inactive: 0.128	inactive: -0.055	inactive: -0.026	inactive: -0.03	inactive: 0	inactive: -0.005	inactive: 0.024
MED16 (UniProt Q9Y2X0)	inactive: 0.018	inactive: -0.009	inactive: -0.014	inactive: -0.092	inactive: 0.141	inactive: -0.287	inactive: -0.144	inactive: 0.009	inactive: -0.029	inactive: 0.024
MAT2B (UniProt Q9NZL9)	inactive: -0.041	inactive: 0.013	inactive: 0.007	inactive: 0.002	inactive: 0.074	inactive: -0.006	inactive: 0.021	inactive: 0.023	inactive: 0.025	inactive: 0.04
MFF (UniProt Q9GZY8)	inactive: -0.065	inactive: -0.049	inactive: -0.057	inactive: -0.073	inactive: 0.014	inactive: -0.017	inactive: -0.011	inactive: -0.05	inactive: 0.073	inactive: 0.035
MFSD5 isoform 2 (UniProt Q6N075)	inactive: -0.126	inactive: 0.009	inactive: 0.054	inactive: 0.055	inactive: -0.029	inactive: -0.057	inactive: -0.048	inactive: 0.009	inactive: 0.141	inactive: 0.128
MCCC1 (UniProt Q96RQ3)	inactive: 0.147	inactive: 0.039	inactive: 0.035	inactive: 0.033	inactive: -0.119	inactive: 0.014	inactive: 0.016	inactive: 0.011	inactive: -0.126	inactive: 0.051
METTL14 (UniProt Q9HCE5)	inactive: -0.088	inactive: -0.084	inactive: 0.091	inactive: -0.078	inactive: 0.006	inactive: 0.012	inactive: 0.019	inactive: -0.012	inactive: -0.015	inactive: 0.058
MDN1 (UniProt Q9NU22)	inactive: -0.094	inactive: 0	inactive: -0.15	inactive: -0.195	inactive: -0.245	inactive: -0.089	inactive: 0.02	inactive: 0.011	inactive: -0.052	inactive: -0.089
MGST2 (UniProt Q99735)	inactive: -0.031	inactive: -0.065	inactive: 0.018	inactive: -0.006	inactive: -0.137	inactive: 0.001	inactive: 0.188	inactive: 0.084	inactive: -0.02	inactive: 0.021
MED28 (UniProt Q9H204)	inactive: 0.148	inactive: 0.016	inactive: 0.064	inactive: 0.012	inactive: 0.01	inactive: -0.09	inactive: 0.049	inactive: 0.068	inactive: 0	inactive: 0.027
MBD3 (UniProt O95983)	inactive: -0.025	inactive: -0.019	inactive: -0.059	inactive: -0.019	inactive: 0.015	inactive: -0.011	inactive: -0.083	inactive: 0	inactive: 0.027	inactive: -0.002
MEF2C isoform 5 (UniProt Q06413)	inactive: 0.01	inactive: 0.085	inactive: 0.221	inactive: -0.065	inactive: 0.092	inactive: 0.013	inactive: -0.083	inactive: -0.165	inactive: 0.167	inactive: 0.023

2 entries from above, bar-delimited:
Target | log2 fold change (bafetinib) | log2 fold change [1] | log2 fold change (nilotinib) | log2 fold change [2] | log2 fold change (dasatinib) | log2 fold change [3] | log2 fold change [4] | log2 fold change [5] | log2 fold change (tipifarnib) | log2 fold change (mubritinib)
ME1 (UniProt P48163) | inactive: -0.031 | inactive: -0.041 | inactive: -0.007 | inactive: 0.011 | inactive: -0.005 | inactive: -0.007 | inactive: 0.041 | inactive: -0.019 | inactive: 0.007 | inactive: 0.035
MCCC2 (UniProt Q9HCC0) | inactive: -0.047 | inactive: -0.062 | inactive: 0.035 | inactive: -0.012 | inactive: 0.058 | inactive: -0.047 | inactive: 0.04 | inactive: 0.028 | inactive: -0.005 | inactive: -0.015
